Assay results taken from PubChem BioAssay AID1347075 (National Center for Advancing Translational Sciences (NCATS), 2019).
Values joined by “and” are separate entries in the source; they are usually repeats but may differ in a detail not shown here. Equal entries are not always repeated. In all, about 400,000 compounds went through this assay and about 5,500 (1.4%) were called active. This list was built around the results that the source calls inconclusive (neither active nor inactive); the mix of calls is not that of the screen. Calls follow the shape of the dose curve; as a rule, active = well fitted cell-killing curve with a large enough effect; inconclusive = small, poorly fitted or top-dose-only effect, or effect the other way; inactive = flat fitted curve, though single readings scatter. Potencies beside an inconclusive call are fits to weak or partial responses and may not hold up.

Assay: qHTS assay for MDR1-selective chemotherapeutics: Primary screen using the parental adenocarcinoma cell KB-3-1; also: nearly all actives have a fitted effect of over 60% in size
Conditions: KB-3-1 viability, CellTiter-Glo ATP luminescence, 72 h; activity change, negative = cytotoxic: at 46.1 µM (top of the series)
Method in brief: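 Cytotoxicity measured as CellTiter-Glo luminescence after 72 h at 37 C. Compound titrations were pinned onto drug-naive KB-3-1 parental adenocarcinoma cells grown in DMEM with 10% FBS, and normalized data fitted to concentration-response curves.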
% is scaled to controls: 0 for no effect and ±100 for the full control effect; potency is read from the fitted curve at half-maximal effect.

Row | Compound | activity change, negative = cytotoxic | Potency
1 | CC(Oc1cc(F)ccc1[N+](=O)[O-])C(=O)Nc1ccc(S(=O)(=O)N2CCCC2)cc1 (stereo unspecified) | inactive: -7.84% | –
2 | C(=C\c1ccccc1)/CN1CCN(C(c2cccs2)c2nnnn2C2CCCC2)CC1 (stereo unspecified) | – | inconclusive: 23.1 µM [cytotoxic, single point]
3 | CCC(=O)N1CCc2cc(CNC(=O)Nc3ccccc3Cl)ccc21 | inactive: -20.1% | –
4 | CN(C)CC1CC/C(=C\c2ccc(O)cc2)C1=O (stereo unspecified) | – | inconclusive: 20.6 µM [cytotoxic, single point]
5 | CN(C)CCCn1c(SCC(=O)N2c3ccccc3Sc3ccccc32)nc2ccccc2c1=O | – | inconclusive: 18.4 µM [cytotoxic, single point]
6 | CCCCCCCCCCCC1=C(O)C(=O)C=C(O)C1=O | – | inconclusive: 25.9 µM [rising, partial curve, poor fit]
7 | C/C(=N\Nc1ccc(Cl)cc1)c1c(O)cc(C)oc1=O | inactive: 0.25% | –
8 | CC1=C(O)C(=O)C(C2=C(O)C(=O)C(C)=C(O)C2=O)=C(O)C1=O | – | inconclusive: 25.9 µM [cytotoxic, single point]
9 | CC(=NNC(=S)N1CCCCC1)c1cccc(C)n1 | – | active: 0.231 µM
10 | CCC1CCCCN1CCCNC(=O)c1ccc2c(c1)N(Cc1ccccc1F)C(=O)c1ccccc1S2(=O)=O (stereo unspecified) | – | inconclusive: 23.1 µM [cytotoxic, single point]
11 | CC(=O)Nc1cc2c3c(c1)CCN3C(=O)CC2 | – | inconclusive: 14.6 µM [cytotoxic, partial curve, poor fit]
12 | CCCS(=O)(=O)N1CC(=O)N(c2ccccc2F)C(C)(C(=O)NC2CCCCCC2)C1 (stereo unspecified) | inactive: 11.7% | –
13 | Cc1ccc(C(=O)Nc2ccc3c(c2)N(C)C(=O)c2ccccc2S3)cc1 | – | active: 16.4 µM
14 | COc1ccc(C(=O)C2CCN(S(=O)(=O)c3ccc4c(c3)OCCO4)CC2)cc1 | – | inconclusive: 23.1 µM [cytotoxic, single point]
15 | O=C1c2cccc3cc([N+](=O)[O-])cc(c23)C(=O)N1CCN1CCCC1 | – | inconclusive: 23.1 µM [cytotoxic, single point]
16 | CCOC(=O)C1(CCCc2ccccc2)CCN(C2CCSCC2)CC1 | inactive: 0% | –
17 | CCOC1=C2CN(S(=O)(=O)c3ccc(C)cc3)C(c3cccc(Cl)c3)CC2N(S(=O)(=O)c2ccc(Cl)cc2)C(c2ccccc2)C1 (stereo unspecified) | – | active: 5.17 µM
18 | COc1ccccc1N1CCN(C(=O)CSc2nc3ccccc3nc2Cc2ccc(F)cc2)CC1 | inactive: -7.81% | –
19 | COc1cccc(-c2ccc(NC(=O)C3CCCN(Cc4cc(C)[nH]n4)C3)cc2)c1 (stereo unspecified) | inactive: -3.33% | –
20 | O=C(CSc1nc(-c2ccccc2)[nH]c1-c1ccccc1)Nc1ccc2c(c1)OCO2 | – | inconclusive: 29.1 µM [cytotoxic, single point]
21 | Cc1c(Nc2nc(-c3ccc(Cl)cc3)cs2)c(=O)n(-c2ccccc2)n1C | – | inconclusive: 23.1 µM [cytotoxic, single point]
22 | O=C(NC1CCCCCC1)c1ccc(S(=O)(=O)NCc2ccco2)cc1 | inactive: -4.29% | –
23 | CC(C)OCCCn1c(SCC(=O)Nc2ccc(F)cc2)nc2c(sc3ccccc32)c1=O | inactive: -6.49% | –
24 | CC1=NC(=O)C(N=Nc2ccccc2)N1c1ccccc1 (stereo unspecified) | inactive: -9.97% | –

Row | Compound | activity change, negative = cytotoxic | Potency
25 | Cc1ccccc1NCc1cccn1-c1nnc(N2CCOCC2)s1 | – | inconclusive: 29.1 µM [cytotoxic, single point]
26 | O=C(NCC(=O)N1CCC2(CC1)NCCc1[nH]cnc12)c1ccc(Br)cc1 | – | inconclusive: 3.66 µM [rising, full curve]
27 | Cc1cc(/C=C2\SC(=S)N(C)C2=O)c(C)n1-c1ccccc1O | – | inconclusive: 18.4 µM [cytotoxic, single point]
28 | O=C(NC1CCN(Cc2ccccc2)CC1)c1cccc(S(=O)(=O)Nc2ccc(Br)cc2)c1 | – | inconclusive: 5.8 µM [cytotoxic, partial curve]
29 | COc1ccc(C2NC(=O)NC(C)=C2C(=O)OC2CCCCC2)cc1OC (stereo unspecified) | inactive: 5.86% | –
30 | CCOc1ccc(CCN2C(=O)C(=O)N([C@@H](CC(C)C)CN3CCC[C@H]3CN3C(=O)C(=O)NC[C@@H]3Cc3ccccc3)C[C@@H]2CC(C)C)cc1 | – | inconclusive: 29.1 µM [cytotoxic, single point]
31 | CCC(C)c1ccccc1OCCCNC1CCCC1 (stereo unspecified) | inactive: -20.6% | –
32 | CCn1c(=O)c2cc(C(=O)NCCCOC)sc2c2ccccc21 | – | inconclusive: 23.1 µM [cytotoxic, single point] and inconclusive: 10.3 µM [cytotoxic, partial curve, poor fit]
33 | O=C(/C=C/c1cccc(Cl)c1)Nc1ccncc1 | – | inconclusive: 18.4 µM [cytotoxic, single point]
34 | CSc1ccc(/C=C(\C#N)C(=O)NC2CCCCC2C)cc1 (stereo unspecified) | – | inconclusive: 29.1 µM [cytotoxic, single point]
35 | CC(=O)N1CCCc2cc(S(=O)(=O)NCc3cccc(C)c3)ccc21 | inactive: 5.39% | –
36 | CC1(C(=O)N2CCN(C(=O)c3ccco3)CC2)CC1(Br)Br (stereo unspecified) | inactive: -4.81% | –
37 | CSC1=NSC2=NC(=O)/C(=C\c3cccs3)C(=N)N12 | – | inconclusive: 16.4 µM [cytotoxic, partial curve]
38 | O=C(CCSc1ccccc1)Nc1ccccc1C(=O)N1CCCC1 | – | inconclusive: 29.1 µM [rising, single point]
39 | Cc1nn(CC(=O)c2ccc(Br)s2)c(C)c1[N+](=O)[O-] | – | inconclusive: 23.1 µM [rising, partial curve, poor fit]
40 | Cc1cc(C(=O)OCC(=O)NCc2ccco2)c(C)n1-c1ccccc1 | – | active: 4.61 µM
41 | COc1ccc(N2C(=O)c3ccccc3NC2c2ccc(OC)c(COc3ccccn3)c2)cc1 (stereo unspecified) | – | inconclusive: 18.4 µM [rising, single point]
42 | Nc1ncnc(Sc2ncccn2)c1[N+](=O)[O-] | – | active: 3.66 µM
43 | Cc1ccc(-n2c(C)cc(C(=O)CSc3nncs3)c2C)cc1 | – | active: 23.1 µM
44 | C=CCc1cccc(CNc2nc3ccccc3n2CCC)c1O | – | inconclusive: 29.1 µM [cytotoxic, single point]
45 | COc1ccc(-c2cc(C(F)(F)F)n3nc(C(=O)Nc4c(C)n(C)n(-c5ccccc5)c4=O)cc3n2)cc1 | – | inconclusive: 18.4 µM [rising, single point]
46 | CCCCn1c(SCc2ccc(C(=O)OC)o2)nc2cc(S(N)(=O)=O)ccc21 | – | active: 18.4 µM
47 | O=C(O)c1ccc(N=Nc2c(-c3ccccc3)[nH]oc2=O)cc1 | inactive: -3.06% | –
48 | CCOC(=O)/C(C#N)=C\C1=C(N2CCCC2)CC(C)(C)OC1 | inactive: -0.373% | –

5 entries picked at random from those above, as already listed:
Row | Compound | activity change, negative = cytotoxic | Potency
39 | Cc1nn(CC(=O)c2ccc(Br)s2)c(C)c1[N+](=O)[O-] | – | inconclusive: 23.1 µM [rising, partial curve, poor fit]
42 | Nc1ncnc(Sc2ncccn2)c1[N+](=O)[O-] | – | active: 3.66 µM
33 | O=C(/C=C/c1cccc(Cl)c1)Nc1ccncc1 | – | inconclusive: 18.4 µM [cytotoxic, single point]
31 | CCC(C)c1ccccc1OCCCNC1CCCC1 (stereo unspecified) | inactive: -20.6% | –
27 | Cc1cc(/C=C2\SC(=S)N(C)C2=O)c(C)n1-c1ccccc1O | – | inconclusive: 18.4 µM [cytotoxic, single point]

Next records follow.

Row | Compound | activity change, negative = cytotoxic | Potency
49 | CC(C)Oc1ccc(C(=O)Nc2cc(S(=O)(=O)N3CCOCC3)ccc2N2CCOCC2)cc1 | – | inconclusive: 18.4 µM [cytotoxic, single point]
50 | O=C(C[n+]1ccccc1)N/N=C/c1cc(Br)ccc1O | inactive: 2.7% | –
51 | Cc1cc(C)c(NC(=O)CSc2nccn2C)c(C)c1 | – | inconclusive: 0.0164 µM [cytotoxic, full curve]
52 | CSc1cc(-c2ccccc2)n(Cc2c(Cl)cccc2Cl)c(=O)c1C#N | – | active: 3.26 µM
53 | CCOC(=O)N(C(=O)c1ccccc1)c1ccccc1 | inactive: 10.2% | –
54 | C=CCN(CC=C)C(=S)NC(=O)c1ccc([N+](=O)[O-])cc1 | – | inconclusive: 29.1 µM [cytotoxic, single point]
55 | CC1(c2ccc3c(c2)OCCO3)NC(=O)N(CC(=O)Nc2ccccc2)C1=O (stereo unspecified) | inactive: -14.9% | –
56 | CC1(C)Cc2c(c(N3CCOCC3)nc3snc(N)c23)CO1 | – | active: 20 µM
57 | CCCS(=O)(=O)c1nc(S(=O)(=O)c2ccc(C)cc2)c(N2CCN(CCO)CC2)s1 | inactive: 2.21% | –
58 | CC(C)c1ccc(NC(=O)Nc2nc(C(N)c3ccccc3)cs2)cc1 (stereo unspecified) | – | inconclusive: 29.1 µM [cytotoxic, single point]
59 | COCCNC(=O)C1(C)CCCN(Cc2ccc3ccccc3c2Br)C1 (stereo unspecified) | inactive: -0.106% | –
60 | CCn1c(C)cc(/C=C2/SC(=O)N(C(C)C(=O)OC)C2=O)c1C (stereo unspecified) | – | inconclusive: 29.1 µM [rising, single point]
61 | Fc1ccc(C2CC(c3ccco3)n3ncnc3N2)cc1 (stereo unspecified) | – | inconclusive: 18.4 µM [cytotoxic, partial curve, poor fit]
62 | COc1ccc(OC)c(CNS(=O)(=O)c2ccc3[nH]c4c(c3c2)CCCCC4)c1 | – | inconclusive: 23.1 µM [cytotoxic, single point]
63 | O=C(CSc1nc2ccc(Cl)cc2[nH]1)NC1CCCc2ccccc21 (stereo unspecified) | inactive: 0% | –
64 | O=C(CCSc1nc2ccccc2s1)N/N=C/c1c(O)ccc2ccccc12 | – | inconclusive: 3.26 µM [cytotoxic, full curve]
65 | COc1ccc(Cl)cc1-c1noc([C@@H]2O[C@H](CO)[C@@H](O)[C@H]2O)n1 | inactive: -0.0033% | –
66 | O=c1c(Cc2ccccc2)c(O)ccn1C1CCCCCCC1 | inactive: -9.19% | –
67 | O=C1C(Br)=C(c2ccccc2)C(c2ccccc2)=C1c1ccccc1 | – | active: 6.51 µM
68 | CC(C)N(C(=O)[C@H]1C[C@H](CC(=O)NCc2ccco2)C(=O)N2CCc3c([nH]c4cc(-c5ccco5)ccc34)[C@]12C)C(C)C | – | inconclusive: 32.6 µM [cytotoxic, single point]
69 | Cc1ccc(S(=O)(=O)N2CCC(=O)N([C@H](COCc3ccc(C(F)(F)F)cc3)Cc3ccccc3)CC2)cc1 | – | inconclusive: 29.1 µM [cytotoxic, single point]
70 | Cc1cc(NC(=O)COCc2cc(-c3ccc(F)cc3)on2)ccc1Br | – | inconclusive: 29.1 µM [cytotoxic, single point]
71 | CC1CCc2nc3ccccc3c(C(=O)OCC(=O)N(C)C3CCS(=O)(=O)C3)c2C1 (stereo unspecified) | – | inconclusive: 16.4 µM [rising, single point]
